Measurements reported in PubChem BioAssay AID652259 (Drosophila RNAi Screening Center, 2013)
Purpose: 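Genome-wide hunt for genes that control Wingless pathway activity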 (primary screen). System: Drosophila clone 8 imaginal disc epithelial cells. Knock-down reagent: long dsRNA against Drosophila genes. Treatment: pathway stimulated by co-transfected Wingless expression plasmid. Measured: 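Dual luciferase reads per well after Wingless plasmid stimulation: reporter firefly light and Renilla control light; activity is firefly divided by Renilla, a ratio not deposited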. Reading the numbers: firefly reporter light: higher = more Wg reporter light, before normalisation; Renilla control light: higher = more transfected or surviving cells. Rule for the call: 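Strong candidates differ from their plate mean by at least two out of four per-plate statistical tests; weak candidates meet just one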. Meaning of the calls: active = candidate regulator (raises or lowers reporter); inactive = not a candidate.
The screen tested about 22,000 reagents; shown is a random part of those with a known target gene and a result. In the full data, 233 (1.1%) got an active call. 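Light values are raw, unnormalised plate reads; the ratio scores behind the reporter calls were not deposited.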 Unmarked entries are inactive. A plus sign joins genes that one reagent is predicted to hit. Not given: the amount of reagent, the time to read-out, the dose of the treatment.

target | amplicon | firefly reporter light, replicate 1 | firefly reporter light, replicate 2 | Renilla control light, replicate 1 | Renilla control light, replicate 2
COX1 (retired record) | DRSC21275 | 11319 | – | 8256 | –
Acn (Acinus) | DRSC02062 | 8758 | – | 1067 | –
CG6287 | DRSC02947 | 6138 | – | 2256 | –
CG6409 | DRSC10630 | 9121 | – | 3777 | –
CG6409 | DRSC22330 | 6.67e5 | 6.56e5 | 3.21e5 | 3.25e5
CG13748 | DRSC06419 | 2547 | 8697 | 817 | 2256
CG31551 | DRSC12159 | 8837 | – | 3724 | –
CG31551 | DRSC22403 | 8.14e5 | 7.82e5 | 3.48e5 | 3.32e5
CG6576 | DRSC10663 | 1013 | 7681 | 973 | 2928
ND-MNLL (NADH dehydrogenase (ubiquinone) MNLL subunit) | DRSC18159 | 24886 | – | 10121 | –
CG2818 | DRSC00540 | 12448 | – | 5499 | –
CG43149 | DRSC07859 | 2087 | – | 1476 | –
Irk3 (Inwardly rectifying potassium channel 3) | DRSC02047 | 1972 | 6256 | 544 | 3225
CG2444 | DRSC19846 | 17469 | – | 8677 | –
Nepl17 (Neprilysin-like 17) | DRSC14880 | 7808 | – | 4644 | –
CG1092 | DRSC12151 | 9704 | – | 4156 | –
CG11698 | DRSC14355 | 3818 | – | 1579 | –
alphaTry (alphaTrypsin) | DRSC07577 | 10454 | – | 3932 | –
Cp7Fc (Chorion protein c at 7F) | DRSC18035 | 20768 | – | 8192 | –
bol (boule) | DRSC08964 | 2392 | – | 1592 | –
bol (boule) | DRSC10444 | 2643 | 9520 | 1554 | 3961
bol (boule) | DRSC11329 | 3747 | 6586 | 2224 | 4048
CG17726 | DRSC15255 | 4202 | – | 1577 | –
CG13018 | DRSC06274 | 6148 | – | 2055 | –
mRpL47 (mitochondrial ribosomal protein L47) | DRSC16827 | 15154 | – | 3190 | –
CG18746 | DRSC15383 | 9398 | – | 2100 | –
Gr32a (Gustatory receptor 32a) | DRSC02400 | 2539 | 9860 | 1162 | 4986
PDCD-5 (Programmed Cell Death 5) | DRSC09955 | 5892 | – | 3162 | –
CG11030 | DRSC02120 | 3065 | 5498 | 1577 | 2892
cpb (capping protein beta) | DRSC00809 | 9762 | – | 4963 | –
PGRP-SD (Peptidoglycan recognition protein SD) | DRSC10856 | 1408 | 4188 | 1258 | 2384
CG18343 | DRSC06726 | 8613 | – | 3272 | –
Tis11 (Tis11 zinc finger protein) | DRSC20293 | 2179 | 7936 | 454 | 1408
cry (cryptochrome) | DRSC16928 | 12844 | – | 3187 | –
CG7215 + Prx5 | DRSC16214 | 18065 | – | 4016 | –
CG7215 + Prx5 | DRSC16215 | 3588 | 8517 | 1376 | 1817
atilla | DRSC02971 | 3605 | 9428 | 1465 | 4347
Ppm1 | DRSC08260 | 5040 | – | 3592 | –
Mtpalpha (Mitochondrial trifunctional protein alpha subunit) | DRSC01994 | 6179 | – | 2001 | –
amd (alpha methyl dopa-resistant) | DRSC02608 | 3565 | 11207 | 1083 | 4421
amd (alpha methyl dopa-resistant) | DRSC03483 | 2983 | 6405 | 781 | 2179
mts (microtubule star) | DRSC03574 | 13904 | – | 2712 | –
Wdr33 (WD repeat domain 33) | DRSC12162 | 5612 | – | 2807 | –
CG17261 | DRSC00498 | 2237 | 8738 | 696 | 3371
CG14563 | DRSC11724 | 20557 | – | 3623 | –
DAAM (Dishevelled Associated Activator of Morphogenesis) | DRSC18479 | 3424 | – | 817 | –
mRpS25 (mitochondrial ribosomal protein S25) | DRSC19598 | 26516 | – | 15349 | –
Kah (Kahuli) | DRSC07887 | 4697 | – | 2625 | –
Kah (Kahuli) | DRSC08515 | 10050 | – | 5563 | –
CheB53b (Chemosensory protein B 53b) | DRSC05613 | 14576 | – | 7176 | –
Dok (Downstream of kinase) | DRSC18204 | 34924 | – | 6585 | –
CG14072 | DRSC02375 | 1809 | 3973 | 887 | 2569
CG31013 | DRSC16542 | 7898 | – | 3005 | –
CG13083 | DRSC02187 | 2880 | 6067 | 699 | 1507
CG14137 | DRSC10142 | 10732 | – | 2725 | –
CG3092 | DRSC04336 | 9206 | – | 3009 | –
mRpL18 (mitochondrial ribosomal protein L18) | DRSC06142 | 9661 | – | 3184 | –
dachs | DRSC01026 | 25192 | 7.50e5 | 10577 | 3.11e5
dachs | DRSC02072 | 8592 | – | 3878 | –
dachs | DRSC02191 | 2403 | 5798 | 887 | 3072
ebo (ellipsoid body open) | DRSC18787 | 1523 | 8304 | 672 | 1786
RpL24 (Ribosomal protein L24) | DRSC03185 | 3268 | 6502 | 779 | 1848
AnxB10 (Annexin B10) | DRSC20677 | 2490 | 8907 | 1139 | 3285
karr | DRSC20681 | 16314 | – | 11053 | –
Prx6c (Peroxiredoxin 6c) | DRSC06080 | 2864 | 6064 | 834 | 1369
CG12360 (retired record) | DRSC14505 | 20108 | – | 4768 | –
CCT2 (Chaperonin containing TCP1 subunit 2) | DRSC18415 | 2393 | 3618 | 658 | 1392
Fip1 (Factor interacting with poly(A) polymerase 1) | DRSC12147 | 4237 | – | 2844 | –
kon (kon-tiki) | DRSC02033 | 8976 | – | 3004 | –
CG7289 | DRSC00697 | 10227 | – | 4170 | –
CG15635 | DRSC00470 | 2683 | 8688 | 1126 | 2129
CG15635 | DRSC22873 | 5.06e5 | 4.70e5 | 2.05e5 | 112
CG12693 | DRSC17882 | 17162 | – | 7936 | –

Targets above whose gene name starts with P or p (4):
target | amplicon | firefly reporter light, replicate 1 | firefly reporter light, replicate 2 | Renilla control light, replicate 1 | Renilla control light, replicate 2
PDCD-5 (Programmed Cell Death 5) | DRSC09955 | 5892 | – | 3162 | –
PGRP-SD (Peptidoglycan recognition protein SD) | DRSC10856 | 1408 | 4188 | 1258 | 2384
Ppm1 | DRSC08260 | 5040 | – | 3592 | –
Prx6c (Peroxiredoxin 6c) | DRSC06080 | 2864 | 6064 | 834 | 1369
